According to patent publication US20030073826A1 (priority 2001, published 2003):
Counter-ions that a name gives are not always drawn. Like-named read-outs stand apart in the source and are kept apart here.

Tests used:
[1] = background statement; cited from earlier work
[2] = for water content at the start of the DMSG run: ambient humidity, sample as received; for moisture sorbed at 80%RH: second scan
Protocol: Approximately 10 mg samples were used in the balance, samples were run as received. The humidity was set at ambient conditions on the day analysis began. […] The scan rate was 3% RH/step. The mass was measured every two minutes and an equilibrium window of 5 points within 0.001 mg. […] The Visual Basic program dmsgscn2.exe was used to control the data collection and export the information to an Excel spreadsheet.
(§1) The humidity was set at ambient conditions on the day analysis began. […] The mass was measured every two minutes and an equilibrium window of 5 points within 0.001 mg.
as §1

[3] = upon trituration in aqueous media, or at stressed humidity conditions

CCC[C@@H]1C[C@@H](C(=O)N[C@@H]([C@H]2O[C@H](SC)[C@H](O)[C@@H](O)[C@H]2O)[C@H](C)Cl)N(C)C1 [Clindamycin hydrochloride, clindamycin hydrochloride]
absorption following oral administration [1]: rapid and nearly complete

CCC[C@@H]1C[C@@H](C(=O)NC(C(C)Cl)C2OC(SC)C(O)C(O)C2O)N(C)C1 (some centres unmarked) [Form I, clindamycin free base]
water content at the start of the DMSG run [2]: approximately 4%

CCC[C@@H]1C[C@@H](C(=O)NC(C(C)Cl)C2OC(SC)C(O)C(O)C2O)N(C)C1 (some centres unmarked) [Form II, clindamycin free base]
solid form conversion [3]: will convert to Form I | water content at the start of the DMSG run [2]: approximately 2%

CCC[C@@H]1C[C@@H](C(=O)NC(C(C)Cl)C2OC(SC)C(O)C(O)C2O)N(C)C1 (some centres unmarked) [Form III, clindamycin free base]
water content retained at moderate humidity ([2]; 10%-80% RH, 4-scan DMSG): about 4.5% | water content at the start of the DMSG run [2]: approximately 4.5%

CCC[C@@H]1C[C@@H](C(=O)NC(C(C)Cl)C2OC(SC)C(O)C(O)C2O)N(C)C1 (some centres unmarked) [clindamycin free base, reference compound]
moisture sorbed at 80%RH ([2]; amorphous material formed from Form II): approximately 2% | moisture sorbed at 80%RH ([2]; amorphous material formed from Form III): about 6%
